Conjugation yield and step yield data for 2 substances are collected here from publication PMC9321335 (Pharmaceutics, 2022).

The nature of the data set: peptide synthesis.

Substance DOTA-Lys(palmitoyl-Glu-OH)-3PRGD2 had a conjugation yield (conjugation step) of roughly 40%.

Where the note is “lipidation step”, Lys(palmitoyl-Glu-OH)-3PRGD2 yielded a step yield of roughly 60%.
